No constants are given. Whether binding was seen depends on the method and setting. In cells and extracts the contact can be indirect. Some entries that bind do so weakly or less than the wild type. Tags and fused reporters may be left off the sequences shown.
T1: Myc-STAG2 WT (human) (UniProt Q8N3U4)
T1 sequence: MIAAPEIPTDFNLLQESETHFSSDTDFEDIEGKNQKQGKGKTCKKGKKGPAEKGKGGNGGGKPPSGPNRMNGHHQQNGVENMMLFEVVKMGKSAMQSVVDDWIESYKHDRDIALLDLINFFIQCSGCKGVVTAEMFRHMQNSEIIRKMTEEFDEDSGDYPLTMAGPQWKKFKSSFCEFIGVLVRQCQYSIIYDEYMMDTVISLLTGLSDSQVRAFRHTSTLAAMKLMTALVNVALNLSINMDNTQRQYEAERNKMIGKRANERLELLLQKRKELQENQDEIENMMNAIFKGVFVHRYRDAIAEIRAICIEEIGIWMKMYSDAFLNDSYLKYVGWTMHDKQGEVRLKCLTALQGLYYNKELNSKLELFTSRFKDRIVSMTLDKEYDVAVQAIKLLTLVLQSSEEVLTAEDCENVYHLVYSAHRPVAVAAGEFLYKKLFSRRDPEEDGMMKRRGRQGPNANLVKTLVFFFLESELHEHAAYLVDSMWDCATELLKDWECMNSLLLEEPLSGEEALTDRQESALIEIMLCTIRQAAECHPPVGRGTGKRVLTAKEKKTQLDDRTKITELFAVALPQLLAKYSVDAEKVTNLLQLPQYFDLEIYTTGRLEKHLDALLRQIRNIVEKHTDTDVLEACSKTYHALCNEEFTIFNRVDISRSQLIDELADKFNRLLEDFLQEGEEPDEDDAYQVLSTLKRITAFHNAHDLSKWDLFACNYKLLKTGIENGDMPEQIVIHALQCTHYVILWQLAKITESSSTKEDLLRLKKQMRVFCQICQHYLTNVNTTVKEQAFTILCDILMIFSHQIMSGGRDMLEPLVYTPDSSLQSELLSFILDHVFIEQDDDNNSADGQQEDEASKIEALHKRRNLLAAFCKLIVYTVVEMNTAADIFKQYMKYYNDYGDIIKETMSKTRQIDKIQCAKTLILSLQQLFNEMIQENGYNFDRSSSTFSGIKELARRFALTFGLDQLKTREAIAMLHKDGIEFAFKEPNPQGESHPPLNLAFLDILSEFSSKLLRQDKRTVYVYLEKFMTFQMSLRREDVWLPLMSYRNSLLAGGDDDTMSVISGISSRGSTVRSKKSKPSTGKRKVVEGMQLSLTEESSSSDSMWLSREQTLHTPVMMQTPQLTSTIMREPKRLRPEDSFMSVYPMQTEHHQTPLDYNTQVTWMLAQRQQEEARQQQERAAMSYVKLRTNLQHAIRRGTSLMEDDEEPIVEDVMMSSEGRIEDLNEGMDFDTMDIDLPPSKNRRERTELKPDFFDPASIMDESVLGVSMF

Protein sequences, listed by entry. Tags and fused reporters are not part of them.
UniProt Q9UQE7: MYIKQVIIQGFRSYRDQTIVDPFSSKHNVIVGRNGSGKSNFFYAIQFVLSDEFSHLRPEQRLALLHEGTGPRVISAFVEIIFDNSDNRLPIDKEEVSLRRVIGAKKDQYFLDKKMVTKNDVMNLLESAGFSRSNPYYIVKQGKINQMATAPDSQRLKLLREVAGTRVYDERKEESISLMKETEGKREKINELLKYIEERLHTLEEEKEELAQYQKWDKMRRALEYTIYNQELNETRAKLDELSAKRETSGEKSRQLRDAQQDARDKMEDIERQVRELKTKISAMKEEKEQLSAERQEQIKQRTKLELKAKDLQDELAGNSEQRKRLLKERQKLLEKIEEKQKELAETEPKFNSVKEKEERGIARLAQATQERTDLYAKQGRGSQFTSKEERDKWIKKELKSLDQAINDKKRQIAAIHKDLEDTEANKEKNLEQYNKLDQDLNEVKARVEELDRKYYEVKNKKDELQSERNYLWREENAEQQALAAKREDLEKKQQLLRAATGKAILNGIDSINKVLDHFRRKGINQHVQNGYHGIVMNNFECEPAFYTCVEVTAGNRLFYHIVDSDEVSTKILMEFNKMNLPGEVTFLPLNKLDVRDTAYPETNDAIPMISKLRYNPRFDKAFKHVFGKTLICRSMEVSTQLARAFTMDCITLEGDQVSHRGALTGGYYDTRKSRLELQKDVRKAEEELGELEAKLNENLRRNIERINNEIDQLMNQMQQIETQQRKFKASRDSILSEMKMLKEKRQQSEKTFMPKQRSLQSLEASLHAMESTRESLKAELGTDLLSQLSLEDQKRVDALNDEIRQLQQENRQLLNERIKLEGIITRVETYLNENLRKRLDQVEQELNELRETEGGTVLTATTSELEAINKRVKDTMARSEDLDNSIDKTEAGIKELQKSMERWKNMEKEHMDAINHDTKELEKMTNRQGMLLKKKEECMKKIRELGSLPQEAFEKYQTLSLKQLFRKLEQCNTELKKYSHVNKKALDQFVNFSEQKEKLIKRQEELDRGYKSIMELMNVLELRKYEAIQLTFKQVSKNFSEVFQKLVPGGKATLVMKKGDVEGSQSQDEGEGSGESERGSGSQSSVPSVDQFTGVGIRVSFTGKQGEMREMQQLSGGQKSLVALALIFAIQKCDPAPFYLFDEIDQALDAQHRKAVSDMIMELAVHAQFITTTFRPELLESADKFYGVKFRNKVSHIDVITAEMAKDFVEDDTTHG
UniProt Q96FF9: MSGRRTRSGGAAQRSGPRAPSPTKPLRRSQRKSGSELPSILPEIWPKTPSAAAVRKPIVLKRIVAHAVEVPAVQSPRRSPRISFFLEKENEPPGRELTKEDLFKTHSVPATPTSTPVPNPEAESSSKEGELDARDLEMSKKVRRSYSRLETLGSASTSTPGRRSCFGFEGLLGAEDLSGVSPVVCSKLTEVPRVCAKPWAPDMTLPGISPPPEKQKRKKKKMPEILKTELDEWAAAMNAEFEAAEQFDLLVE

T2: GST-SGO1(302–367) T346E (human) (UniProt Q5FBB7)
T2 sequence: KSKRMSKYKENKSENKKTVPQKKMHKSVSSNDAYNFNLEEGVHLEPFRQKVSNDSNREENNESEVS

T3: GST-WAPL(410–590) (human) (UniProt Q7Z5K2)
T3 sequence: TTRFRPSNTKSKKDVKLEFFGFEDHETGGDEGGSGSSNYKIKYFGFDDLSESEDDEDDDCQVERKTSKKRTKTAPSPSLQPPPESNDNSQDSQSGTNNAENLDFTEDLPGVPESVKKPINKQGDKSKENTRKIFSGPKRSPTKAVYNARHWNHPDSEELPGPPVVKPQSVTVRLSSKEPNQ


Tests used:
[1] = molecular target: T1, Myc-STAG2 WT (human); assay: co-IP; anti-Myc beads, lysates of HeLa Tet-On cells transfected with Myc-STAG2 WT or mutants; 3 h at 4 °C; washes with lysis buffer containing 200 mM NaCl; blots for endogenous proteins
[2] = molecular target: T2, GST-SGO1(302–367) T346E (human); assay: pull-down; GST-SGO1(302–367) T346E or GST-WAPL(410–590) on Glutathione Sepharose 4B beads, incubated with the in vitro translated 35S-STAG2–SCC1(211–420) complex at 4 °C for 2 h; washed four times with TBS, 0.05% Tween 20; SDS-PAGE, phosphoimager; only the target purified
[3] = molecular target: T3, GST-WAPL(410–590) (human); assay: as above

Molecule	binding [1]	binding [2]	binding [3]
endogenous SMC3 (from UniProt Q9UQE7 1-1217)	binds	–	–
endogenous PDS5A (protein, UniProt Q29RF7 1-1337) MDFTAQPKPATALCGVVSADGKIAYPPGVKEITDKITTDEMIKRLKMVVKTFMDMDQDSEDEKQQYLPLALHLASEFFLRNPNKDVRLLVACCLADIFRIYAPEAPYTSHDKLKDIFLFITRQLKGLEDTKSPQFNRYFYLLENLAWVKSYNICFELEDCNEIFIQLFRTLFSVINNSHNKKVQMHMLDLMSSIIMEGDGVTQELLDSILINLIPAHKNLNKQSFDLAKVLLKRTVQTIEACIANFFNQVLVLGRSSVSDLSEHVFDLIQELFAIDPHLLLSVMPQLEFKLKSNDGEERLAVVRLLAKLFGSKDSDLATQNRPLWQCFLGRFNDIHVPVRLESVKFASHCLMNHPDLAKDLTEYLKVRSHDPEEAIRHDVIVTIITAAKRDLALVNDQLLGFVRERTLDKRWRVRKEAMMGLAQLYKKYCLHGEAGKEAAEKVSWIKDKLLHIYYQNSIDDKLLVEKIFAQYLVPHNLETEERMKCLYYLYASLDPNAVKALNEMWKCQNMLRSHVRELLDLHKQPTSEANCSAMFGKLMTIAKNLPDPGKAQDFVKKFNQVLGDDEKLRSQLELLISPTCSCKQADICVREIARKLANPKQPTNPFLEMVKFLLERIAPVHIDSEAISALVKLMNKSIEGTADDEEEGVSPDTAIRSGLELLKVLSFTHPTSFHSAETYESLLQCLRMEDDKVAEAAIQIFRNTGHKIETDLPQIRSTLIPILHQKAKRGTPHQAKQAVHCIHAIFTNKEVQLAQIFEPLSRSLNADVPEQLITPLVSLGHISMLAPDQFASPMKSVVANFIVKDLLMNDRSTGEKNGKLWSPDEEVSPEVLAKVQAIKLLVRWLLGMKNNQSKSANSTLRLLSAMLVSEGDLTEQKRISKSDMSRLRLAAGSAIMKLAQEPCYHEIITPEQFQLCALVINDECYQVRQIFAQKLHKALVKLLLPLEYMAIFALCAKDPVKERRAHARQCLLKNISIRREYIKQNPMATEKLLSLLPEYVVPYMIHLLAHDPDFTRSQDVDQLRDIKECLWFMLEVLMTKNENNSHAFMKKMAENIKLTRDAQSPDESKTNEKLYTVCDVALCVINSKSALCNADSPKDPVLPMKFFTQPEKDFCNDKSYISEETRVLLLTGKPKPAGVLGAVNKPLSATGRKPYVRSTGTETGSNINVNSELNPSTGNRSREQSSEAAETGVSENEENPVRIISVTPVKNIDPVKNKEINSDQATQGNISSDRGKKRTVTAAGAENIQQKTDEKVDESGPPAPSKPRRGRRPKSESQGNATKNDDLNKPINKGRKRAAVGQESPGGLEAGNAKAPKLQDLAKKAAPAERQIDLQR	binds	–	–
35S-labeled STAG2–SCC1(211–420) complex, WT (complex, UniProt Q8N3U4-2 1-1268; O60216 211-420, 35S-methionine label | 35S-methionine label) chain 1: MIAAPEIPTDFNLLQESETHFSSDTDFEDIEGKNQKQGKGKTCKKGKKGPAEKGKGGNGGGKPPSGPNRMNGHHQQNGVENMMLFEVVKMGKSAMQSVVDDWIESYKHDRDIALLDLINFFIQCSGCKGVVTAEMFRHMQNSEIIRKMTEEFDEDSGDYPLTMAGPQWKKFKSSFCEFIGVLVRQCQYSIIYDEYMMDTVISLLTGLSDSQVRAFRHTSTLAAMKLMTALVNVALNLSINMDNTQRQYEAERNKMIGKRANERLELLLQKRKELQENQDEIENMMNAIFKGVFVHRYRDAIAEIRAICIEEIGIWMKMYSDAFLNDSYLKYVGWTMHDKQGEVRLKCLTALQGLYYNKELNSKLELFTSRFKDRIVSMTLDKEYDVAVQAIKLLTLVLQSSEEVLTAEDCENVYHLVYSAHRPVAVAAGEFLYKKLFSRRDPEEDGMMKRRGRQGPNANLVKTLVFFFLESELHEHAAYLVDSMWDCATELLKDWECMNSLLLEEPLSGEEALTDRQESALIEIMLCTIRQAAECHPPVGRGTGKRVLTAKEKKTQLDDRTKITELFAVALPQLLAKYSVDAEKVTNLLQLPQYFDLEIYTTGRLEKHLDALLRQIRNIVEKHTDTDVLEACSKTYHALCNEEFTIFNRVDISRSQLIDELADKFNRLLEDFLQEGEEPDEDDAYQVLSTLKRITAFHNAHDLSKWDLFACNYKLLKTGIENGDMPEQIVIHALQCTHYVILWQLAKITESSSTKEDLLRLKKQMRVFCQICQHYLTNVNTTVKEQAFTILCDILMIFSHQIMSGGRDMLEPLVYTPDSSLQSELLSFILDHVFIEQDDDNNSADGQQEDEASKIEALHKRRNLLAAFCKLIVYTVVEMNTAADIFKQYMKYYNDYGDIIKETMSKTRQIDKIQCAKTLILSLQQLFNEMIQENGYNFDRSSSTFSGIKELARRFALTFGLDQLKTREAIAMLHKDGIEFAFKEPNPQGESHPPLNLAFLDILSEFSSKLLRQDKRTVYVYLEKFMTFQMSLRREDVWLPLMSYRNSLLAGGDDDTMSVISGISSRGSTVRSKKSKPSTGKRKVVEGMQLSLTEESSSSDSMWLSREQTLHTPVMMQTPQLTSTIMREPKRLRPEDSFMSVYPMQTEHHQTPLDYNTQVTWMLAQRQQEEARQQQERAAMSYVKLRTNLQHAIRRGTSLMEDDEEPIVEDVMMSSEGRIEDLNEGMDFDTMDIDLPPSKNRRERTELKPDFFDPASIMDESVLGVSMF chain 2: YEDQYKDDNFGEGNDGGILDDKLISNNDGGIFDDPPALSEAGVMLPEQPAHDDMDEDDNVSMGGPDSPDSVDPVEPMPTMTDQTTLVPNEEEAFALEPIDITVKETKAKRKRKLIVDSVKELDSKTIRAQLSDYSDIVTTLDLAPPTKKLMMWKETGGVEKLFSLPAQPLWNNRLLKLFTRCLTPLVPEDLRKRRKGGEADNLDEFLKEF	–	binds	binds

Now from value to molecule:

binding [1]	binding [2]	binding [3]	Molecule
binds	–	–	endogenous SORORIN (from UniProt Q96FF9 1-252)
binds	–	–	endogenous WAPL (protein, UniProt Q7Z5K2 1-1190) MTSRFGKTYSRKGGNGSSKFDEVFSNKRTTLSTKWGETTFMAKLGQKRPNFKPDIQEIPKKPKVEEESTGDPFGFDSDDESLPVSSKNLAQVKCSSYSESSEAAQLEEVTSVLEANSKISHVVVEDTVVSDKCFPLEDTLLGKEKSTNRIVEDDASISSCNKLITSDKVENFHEEHEKNSHHIHKNADDSTKKPNAETTVASEIKETNDTWNSQFGKRPESPSEISPIKGSVRTGLFEWDNDFEDIRSEDCILSLDSDPLLEMKDDDFKNRLENLNEAIEEDIVQSVLRPTNCRTYCRANKTKSSQGASNFDKLMDGTSQALAKANSESSKDGLNQAKKGGVSCGTSFRGTVGRTRDYTVLHPSCLSVCNVTIQDTMERSMDEFTASTPADLGEAGRLRKKADIATSKTTTRFRPSNTKSKKDVKLEFFGFEDHETGGDEGGSGSSNYKIKYFGFDDLSESEDDEDDDCQVERKTSKKRTKTAPSPSLQPPPESNDNSQDSQSGTNNAENLDFTEDLPGVPESVKKPINKQGDKSKENTRKIFSGPKRSPTKAVYNARHWNHPDSEELPGPPVVKPQSVTVRLSSKEPNQKDDGVFKAPAPPSKVIKTVTIPTQPYQDIVTALKCRREDKELYTVVQHVKHFNDVVEFGENQEFTDDIEYLLSGLKSTQPLNTRCLSVISLATKCAMPSFRMHLRAHGMVAMVFKTLDDSQHHQNLSLCTAALMYILSRDRLNMDLDRASLDLMIRLLELEQDASSAKLLNEKDMNKIKEKIRRLCETVHNKHLDLENITTGHLAMETLLSLTSKRAGDWFKEELRLLGGLDHIVDKVKECVDHLSRDEDEEKLVASLWGAERCLRVLESVTVHNPENQSYLIAYKDSQLIVSSAKALQHCEELIQQYNRAEDSICLADSKPLPHQNVTNHVGKAVEDCMRAIIGVLLNLTNDNEWGSTKTGEQDGLIGTALNCVLQVPKYLPQEQRFDIRVLGLGLLINLVEYSARNRHCLVNMETSCSFDSSICSGEGDDSLRIGGQVHAVQALVQLFLERERAAQLAESKTDELIKDAPTTQHDKSGEWQETSGEIQWVSTEKTDGTEEKHKKEEEDEELDLNKALQHAGKHMEDCIVASYTALLLGCLCQESPINVTTVREYLPEGDFSIMTEMLKKFLSFMNLTCAVGTTGQKSISRVIEYLEHC
